This is one part of the list. Many values rest on one well or one pass, so single values are uncertain.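 Cells were imaged in 1,536-well plates, and nuclei stained with an antibody against cleaved PARP were counted against all DNA-stained nuclei to give the apoptosis fraction. Screening doses were chosen to leave most cells alive, and resting and induced cleaved-PARP levels differ strongly between cell lines.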
Tests used:
Assay in all cases: cleaved PARP positive nuclei fraction relative to DMSO control; melanoma cells; higher = more apoptosis
Conditions in all cases: library dose: low library concentration; 72 h
COLO792 = system: COLO792
COLO800 = system: COLO800
COLO829 = system: COLO829
G361 = system: G361
IPC-298 = system: IPC-298
IST-MEL1 = system: IST-MEL1
LB2518-MEL = system: LB2518-MEL
LOXIMVI = system: LOXIMVI

Row | SMILES | cleaved PARP positive nuclei fraction (COLO792) [%] | cleaved PARP positive nuclei fraction (COLO800) [%] | cleaved PARP positive nuclei fraction (COLO829) [%] | cleaved PARP positive nuclei fraction (G361) [%] | cleaved PARP positive nuclei fraction (IPC-298) [%] | cleaved PARP positive nuclei fraction (IST-MEL1) [%] | cleaved PARP positive nuclei fraction (LB2518-MEL) [%] | cleaved PARP positive nuclei fraction (LOXIMVI) [%]
1 | Cn1cc(C2=C(c3cn(C4CCN(Cc5ccccn5)CC4)c4ccccc34)C(=O)NC2=O)c2ccccc21 [Enzastaurin] + COc1ccc2c(c1)CCC1C2CCC2(C)C(NCCCCCCN3C(=O)C=CC3=O)CCC12 [U73122] (first compound 0.8 µM, partner dose 0.4 µM) | 76.2 | 60.5 | 148 | 64.4 | 124 | 61.2 | 41.7 | 123
2 | CCN(CC)CCNC(=O)c1c(C)[nH]c(/C=C2\C(=O)Nc3ccc(F)cc32)c1C [sunitinib] + Cc1cc(SCc2sc(-c3ccc(C(F)(F)F)c(F)c3)nc2C)ccc1OCC(=O)O [GW0742] (first compound 0.4 µM, partner dose 2 µM) | 51.3 | 77.5 | 36.4 | 74.6 | 64.2 | 127 | 61.5 | 56.2
3 | C[C@]12O[C@H](C[C@]1(O)CO)n1c3ccccc3c3c4c(c5c6ccccc6n2c5c31)CNC4=O [Lestaurtinib] + COc1cc(N2CCC(N3CCN(C)CC3)CC2)ccc1Nc1ncc(Cl)c(Nc2ccccc2S(=O)(=O)C(C)C)n1 [NVP-TAE684] (first compound 0.004 µM, partner dose 0.08 µM) | 62.7 | 175 | 121 | 201 | 221 | 61.7 | 65 | 67.5
4 | Cn1cc(C2=C(c3cn(C4CCN(Cc5ccccn5)CC4)c4ccccc34)C(=O)NC2=O)c2ccccc21 [Enzastaurin] + Cc1cc(SCc2sc(-c3ccc(C(F)(F)F)c(F)c3)nc2C)ccc1OCC(=O)O [GW0742] (first compound 0.8 µM, partner dose 2 µM) | 148 | 39.2 | 82.6 | 99.8 | 44.2 | 100 | 99.8 | 182
5 | N.N.[Cl][Pt][Cl] [cisplatin] + COc1cc2ncnc(Nc3ccc(Oc4ccccc4)cc3)c2cc1OC [SrcI1] (first compound 1.6 µM, partner dose 2 µM) | 104 | 56.6 | 61.8 | 202 | 63.9 | 109 | 64.3 | 106
6 | Cn1c(=O)n(-c2ccc(C(C)(C)C#N)cc2)c2c3cc(-c4cnc5ccccc5c4)ccc3ncc21 + C/C(O)=C(\C#N)C(=O)Nc1cc(Br)ccc1Br [LFM-A13] (first compound 0.004 µM, partner dose 2 µM) | 80.6 | 92.3 | 122 | 136 | 96.2 | 92.5 | 69.3 | 255
7 | Cn1cc(C2=C(c3cn(C4CCN(Cc5ccccn5)CC4)c4ccccc34)C(=O)NC2=O)c2ccccc21 [Enzastaurin] + COc1ccc(COc2ccc(Cc3cnc(N)nc3N)cc2OC)cc1 [GW2580] (first compound 0.8 µM, partner dose 1 µM) | 54 | 57.2 | 95.7 | 84.1 | 42.8 | 47.2 | 140 | 105
8 | Cc1cc(Nc2cc(N3CCN(C)CC3)nc(/C=C/c3ccccc3)n2)n[nH]1 + O=C(Oc1ccc([N+](=O)[O-])cc1)N1CCC(C(O)(c2ccc3c(c2)OCO3)c2ccc3c(c2)OCO3)CC1 [JZL184] (first compound 0.04 µM, partner dose 1 µM) | 104 | 23.9 | 76.1 | 129 | 87.7 | 53.6 | 62.3 | 163
9 | Cn1cc(C2=C(c3cn(C4CCN(Cc5ccccn5)CC4)c4ccccc34)C(=O)NC2=O)c2ccccc21 [Enzastaurin] + O=C(Nc1ccccc1)c1cc([N+](=O)[O-])ccc1Cl [GW9662] (first compound 0.8 µM, partner dose 2 µM) | 105 | 17.6 | 53.1 | 181 | 116 | 89 | 72.4 | 109
10 | O=c1[nH]nc(Sc2ncc([N+](=O)[O-])s2)n1-c1ccc2c(c1)OCCO2 + O=C(Oc1ccc([N+](=O)[O-])cc1)N1CCC(C(O)(c2ccc3c(c2)OCO3)c2ccc3c(c2)OCO3)CC1 [JZL184] (first compound 0.2 µM, partner dose 1 µM) | 151 | 141 | 59.9 | 113 | 185 | 97.8 | 64.2 | 57.4
11 | CCCCCCCCc1ccc(CCC(N)(CO)CO)cc1 [fingolimod] + Cc1cc(SCc2sc(-c3ccc(C(F)(F)F)c(F)c3)nc2C)ccc1OCC(=O)O [GW0742] (first compound 2 µM, partner dose 2 µM) | 45 | 62.8 | 64.9 | 109 | 95.6 | 62 | 34 | 25.4
12 | OCc1c[nH]c2ccccc12 [Indole-3-carbinol] + C/C(O)=C(\C#N)C(=O)Nc1cc(Br)ccc1Br [LFM-A13] (first compound 0.8 µM, partner dose 2 µM) | 103 | 170 | 76.4 | 189 | 96.7 | 86.9 | 73.3 | 3190
13 | Nc1ncn([C@H]2C[C@H](O)[C@@H](CO)O2)c(=O)n1 [decitabine] + O=C(Oc1ccc([N+](=O)[O-])cc1)N1CCC(C(O)(c2ccc3c(c2)OCO3)c2ccc3c(c2)OCO3)CC1 [JZL184] (first compound 0.1 µM, partner dose 1 µM) | 61.7 | 182 | 81.5 | 116 | 291 | 87.5 | 113 | 54.5
14 | C[C@]12O[C@H](C[C@]1(O)CO)n1c3ccccc3c3c4c(c5c6ccccc6n2c5c31)CNC4=O [Lestaurtinib] + CCN(CC)CCCCNc1ncc2cc(-c3cc(OC)cc(OC)c3)c(NC(=O)NC(C)(C)C)nc2n1 [PD173074] (first compound 0.004 µM, partner dose 0.1 µM) | 51.5 | 167 | 77.6 | 163 | 49.5 | 107 | 64.8 | 33.6
15 | Clc1ccc(Nc2nnc(Cc3ccncc3)c3ccccc23)cc1 [vatalanib] + O=C(Oc1ccc([N+](=O)[O-])cc1)N1CCC(C(O)(c2ccc3c(c2)OCO3)c2ccc3c(c2)OCO3)CC1 [JZL184] (first compound 2 µM, partner dose 1 µM) | 110 | 124 | 74.8 | 117 | 94.7 | 47.6 | 78.5 | 72.7
16 | CCN(CC)CCNC(=O)c1c(C)[nH]c(/C=C2\C(=O)Nc3ccc(F)cc32)c1C [sunitinib] + C/C(O)=C(\C#N)C(=O)Nc1cc(Br)ccc1Br [LFM-A13] (first compound 0.4 µM, partner dose 2 µM) | 113 | 92 | 21.9 | 108 | 176 | 122 | 97.6 | 207
17 | CS(=O)(=O)CCNCc1ccc(-c2ccc3ncnc(Nc4ccc(OCc5cccc(F)c5)c(Cl)c4)c3c2)o1 [lapatinib] + O=C(Oc1ccc([N+](=O)[O-])cc1)N1CCC(C(O)(c2ccc3c(c2)OCO3)c2ccc3c(c2)OCO3)CC1 [JZL184] (first compound 0.8 µM, partner dose 1 µM) | 55.2 | 131 | 74.2 | 46.2 | 60.8 | 116 | 32.2 | 16.8
18 | CCCS(=O)(=O)Nc1ccc(F)c(C(=O)c2c[nH]c3ncc(Cl)cc23)c1F + Cc1cc(SCc2sc(-c3ccc(C(F)(F)F)c(F)c3)nc2C)ccc1OCC(=O)O [GW0742] (first compound 0.08 µM, partner dose 2 µM) | 49.9 | 265 | 93.4 | 102 | 102 | 151 | 119 | 70.9
19 | NC(=O)c1ccc(N(C(N)=O)c2c(F)cccc2F)nc1-c1ccc(F)cc1F + C/C(O)=C(\C#N)C(=O)Nc1cc(Br)ccc1Br [LFM-A13] (first compound 0.4 µM, partner dose 2 µM) | 78.9 | 77.8 | 97 | 61.7 | 95.2 | 107 | 140 | 283
20 | Cc1cc(Nc2cc(N3CCN(C)CC3)nc(Sc3ccc(NC(=O)C4CC4)cc3)n2)n[nH]1 [Tozasertib] + O=C(Oc1ccc([N+](=O)[O-])cc1)N1CCC(C(O)(c2ccc3c(c2)OCO3)c2ccc3c(c2)OCO3)CC1 [JZL184] (first compound 0.006 µM, partner dose 1 µM) | 123 | 126 | 35.6 | 66.4 | 125 | 99.2 | 51.1 | 127
21 | CS(=O)(=O)c1ccc(C(=O)Nc2ccc(Cl)c(-c3ccccn3)c2)c(Cl)c1 [vismodegib] + Cc1cc(SCc2sc(-c3ccc(C(F)(F)F)c(F)c3)nc2C)ccc1OCC(=O)O [GW0742] (first compound 1 µM, partner dose 2 µM) | 95 | 106 | 163 | 126 | 176 | 183 | 33.6 | 90.1
22 | Cn1cc(C2=C(c3cn(C4CCN(Cc5ccccn5)CC4)c4ccccc34)C(=O)NC2=O)c2ccccc21 [Enzastaurin] + c1cc(-c2cnn3cc(-c4ccc(OCCN5CCCCC5)cc4)cnc23)ccn1 [Dorsomorphin] (first compound 0.8 µM, partner dose 0.4 µM) | 191 | 131 | 51.6 | 55.1 | 115 | 53.8 | 145 | 63.7
23 | COc1cc([C@@H]2c3cc4c(cc3[C@@H](O[C@@H]3O[C@@H]5CO[C@@H](C)O[C@H]5[C@H](O)[C@H]3O)[C@H]3COC(=O)[C@H]23)OCO4)cc(OC)c1O [etoposide] + C/C(O)=C(\C#N)C(=O)Nc1cc(Br)ccc1Br [LFM-A13] (first compound 0.02 µM, partner dose 2 µM) | 123 | 39.3 | 120 | 69.7 | 82.6 | 104 | 153 | 98.4

Record cards, as listed above:
Cn1cc(C2=C(c3cn(C4CCN(Cc5ccccn5)CC4)c4ccccc34)C(=O)NC2=O)c2ccccc21 [Enzastaurin] + COc1ccc(COc2ccc(Cc3cnc(N)nc3N)cc2OC)cc1 [GW2580] (first compound 0.8 µM, partner dose 1 µM) as listed: cleaved PARP positive nuclei fraction (COLO792) [%]: 54; cleaved PARP positive nuclei fraction (COLO800) [%]: 57.2; cleaved PARP positive nuclei fraction (COLO829) [%]: 95.7; cleaved PARP positive nuclei fraction (G361) [%]: 84.1; cleaved PARP positive nuclei fraction (IPC-298) [%]: 42.8; cleaved PARP positive nuclei fraction (IST-MEL1) [%]: 47.2; cleaved PARP positive nuclei fraction (LB2518-MEL) [%]: 140; cleaved PARP positive nuclei fraction (LOXIMVI) [%]: 105
C[C@]12O[C@H](C[C@]1(O)CO)n1c3ccccc3c3c4c(c5c6ccccc6n2c5c31)CNC4=O [Lestaurtinib] + COc1cc(N2CCC(N3CCN(C)CC3)CC2)ccc1Nc1ncc(Cl)c(Nc2ccccc2S(=O)(=O)C(C)C)n1 [NVP-TAE684] (first compound 0.004 µM, partner dose 0.08 µM) as listed: cleaved PARP positive nuclei fraction (COLO792) [%]: 62.7; cleaved PARP positive nuclei fraction (COLO800) [%]: 175; cleaved PARP positive nuclei fraction (COLO829) [%]: 121; cleaved PARP positive nuclei fraction (G361) [%]: 201; cleaved PARP positive nuclei fraction (IPC-298) [%]: 221; cleaved PARP positive nuclei fraction (IST-MEL1) [%]: 61.7; cleaved PARP positive nuclei fraction (LB2518-MEL) [%]: 65; cleaved PARP positive nuclei fraction (LOXIMVI) [%]: 67.5

From the supplement of paper PMC4604168 (melanoma cell lines)
